Compound in the assay: CCc1cnccc1C(=O)Nc1cc2c(cc1F)NC(=O)CC2
Nature of the assay: melting temperature shift (DMSO Tm minus MBE1-treated Tm) in cellular thermal proteome profiling; higher = less thermal stabilization by MBE1 (negative = stabilized by MBE1). The conditions noted are these: A375.

The chains behind the UniProt entries cited, without tags or fusion partners. Where a name states a change or a piece, a line headed by the entry shows the natural chain unless it says otherwise.
UniProt Q86UV5: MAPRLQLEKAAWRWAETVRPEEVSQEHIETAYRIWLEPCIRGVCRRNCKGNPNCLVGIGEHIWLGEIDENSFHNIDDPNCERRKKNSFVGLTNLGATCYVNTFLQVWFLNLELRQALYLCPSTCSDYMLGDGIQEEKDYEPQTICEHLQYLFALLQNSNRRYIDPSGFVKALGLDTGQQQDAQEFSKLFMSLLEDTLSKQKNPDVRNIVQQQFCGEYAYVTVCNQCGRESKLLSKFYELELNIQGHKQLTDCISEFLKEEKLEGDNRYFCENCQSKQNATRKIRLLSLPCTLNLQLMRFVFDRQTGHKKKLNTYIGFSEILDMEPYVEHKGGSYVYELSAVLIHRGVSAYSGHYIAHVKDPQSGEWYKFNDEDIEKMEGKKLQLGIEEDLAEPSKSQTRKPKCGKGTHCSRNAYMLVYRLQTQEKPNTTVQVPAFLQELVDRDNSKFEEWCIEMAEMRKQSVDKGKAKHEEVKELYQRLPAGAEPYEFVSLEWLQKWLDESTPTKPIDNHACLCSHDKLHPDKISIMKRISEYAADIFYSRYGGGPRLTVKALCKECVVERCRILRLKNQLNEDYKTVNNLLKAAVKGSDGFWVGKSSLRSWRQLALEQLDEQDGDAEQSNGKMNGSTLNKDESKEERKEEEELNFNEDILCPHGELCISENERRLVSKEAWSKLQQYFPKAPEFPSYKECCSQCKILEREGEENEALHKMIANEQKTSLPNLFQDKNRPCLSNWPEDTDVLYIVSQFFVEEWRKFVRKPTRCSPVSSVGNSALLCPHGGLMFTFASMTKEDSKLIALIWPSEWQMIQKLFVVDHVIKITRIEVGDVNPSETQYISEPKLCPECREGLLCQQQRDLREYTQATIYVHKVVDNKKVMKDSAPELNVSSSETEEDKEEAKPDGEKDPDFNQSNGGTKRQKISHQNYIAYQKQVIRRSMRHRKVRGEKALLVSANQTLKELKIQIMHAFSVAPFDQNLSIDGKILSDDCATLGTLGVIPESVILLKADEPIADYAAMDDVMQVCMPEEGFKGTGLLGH
UniProt Q6ZT21: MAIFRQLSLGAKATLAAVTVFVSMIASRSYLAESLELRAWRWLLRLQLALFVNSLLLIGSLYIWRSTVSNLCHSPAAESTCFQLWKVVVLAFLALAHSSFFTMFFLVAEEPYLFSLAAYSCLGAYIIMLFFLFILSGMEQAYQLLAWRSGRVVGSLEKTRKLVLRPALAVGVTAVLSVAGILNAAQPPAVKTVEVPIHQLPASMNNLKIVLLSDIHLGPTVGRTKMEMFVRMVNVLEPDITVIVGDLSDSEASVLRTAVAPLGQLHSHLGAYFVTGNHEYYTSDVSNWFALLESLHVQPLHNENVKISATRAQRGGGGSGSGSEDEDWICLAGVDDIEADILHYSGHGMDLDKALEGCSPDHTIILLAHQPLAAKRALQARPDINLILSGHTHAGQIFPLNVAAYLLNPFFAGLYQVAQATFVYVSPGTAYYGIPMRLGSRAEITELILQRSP
UniProt Q71UI9, whole entry, looked up: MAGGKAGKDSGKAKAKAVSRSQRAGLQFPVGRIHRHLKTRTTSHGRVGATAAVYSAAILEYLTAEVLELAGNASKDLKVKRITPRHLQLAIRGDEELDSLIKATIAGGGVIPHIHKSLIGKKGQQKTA
UniProt Q7Z7B1: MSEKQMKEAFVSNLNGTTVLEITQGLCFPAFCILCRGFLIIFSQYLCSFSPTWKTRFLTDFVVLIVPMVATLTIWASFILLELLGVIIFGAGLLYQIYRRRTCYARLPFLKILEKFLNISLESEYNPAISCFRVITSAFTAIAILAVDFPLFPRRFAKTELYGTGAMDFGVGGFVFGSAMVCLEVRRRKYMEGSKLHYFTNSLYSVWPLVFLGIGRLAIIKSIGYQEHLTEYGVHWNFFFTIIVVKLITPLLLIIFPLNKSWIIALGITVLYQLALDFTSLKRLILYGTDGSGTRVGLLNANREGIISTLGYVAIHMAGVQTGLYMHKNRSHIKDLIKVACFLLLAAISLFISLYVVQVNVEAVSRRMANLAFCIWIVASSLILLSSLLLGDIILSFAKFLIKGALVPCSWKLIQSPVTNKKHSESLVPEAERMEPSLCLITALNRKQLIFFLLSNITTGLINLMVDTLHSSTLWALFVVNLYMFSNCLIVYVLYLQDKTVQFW
UniProt Q86V59: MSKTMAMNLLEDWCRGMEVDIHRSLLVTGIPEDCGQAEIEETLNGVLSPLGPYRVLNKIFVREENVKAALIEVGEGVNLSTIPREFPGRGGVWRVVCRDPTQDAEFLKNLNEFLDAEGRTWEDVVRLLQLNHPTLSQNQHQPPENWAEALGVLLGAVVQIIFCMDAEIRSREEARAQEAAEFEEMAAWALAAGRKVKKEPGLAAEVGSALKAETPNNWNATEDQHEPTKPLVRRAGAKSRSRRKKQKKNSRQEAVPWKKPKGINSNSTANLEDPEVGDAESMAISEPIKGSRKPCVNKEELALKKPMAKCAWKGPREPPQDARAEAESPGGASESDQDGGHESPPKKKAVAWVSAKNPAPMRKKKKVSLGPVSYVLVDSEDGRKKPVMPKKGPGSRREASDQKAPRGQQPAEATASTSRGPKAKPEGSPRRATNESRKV
UniProt Q6ZUT9: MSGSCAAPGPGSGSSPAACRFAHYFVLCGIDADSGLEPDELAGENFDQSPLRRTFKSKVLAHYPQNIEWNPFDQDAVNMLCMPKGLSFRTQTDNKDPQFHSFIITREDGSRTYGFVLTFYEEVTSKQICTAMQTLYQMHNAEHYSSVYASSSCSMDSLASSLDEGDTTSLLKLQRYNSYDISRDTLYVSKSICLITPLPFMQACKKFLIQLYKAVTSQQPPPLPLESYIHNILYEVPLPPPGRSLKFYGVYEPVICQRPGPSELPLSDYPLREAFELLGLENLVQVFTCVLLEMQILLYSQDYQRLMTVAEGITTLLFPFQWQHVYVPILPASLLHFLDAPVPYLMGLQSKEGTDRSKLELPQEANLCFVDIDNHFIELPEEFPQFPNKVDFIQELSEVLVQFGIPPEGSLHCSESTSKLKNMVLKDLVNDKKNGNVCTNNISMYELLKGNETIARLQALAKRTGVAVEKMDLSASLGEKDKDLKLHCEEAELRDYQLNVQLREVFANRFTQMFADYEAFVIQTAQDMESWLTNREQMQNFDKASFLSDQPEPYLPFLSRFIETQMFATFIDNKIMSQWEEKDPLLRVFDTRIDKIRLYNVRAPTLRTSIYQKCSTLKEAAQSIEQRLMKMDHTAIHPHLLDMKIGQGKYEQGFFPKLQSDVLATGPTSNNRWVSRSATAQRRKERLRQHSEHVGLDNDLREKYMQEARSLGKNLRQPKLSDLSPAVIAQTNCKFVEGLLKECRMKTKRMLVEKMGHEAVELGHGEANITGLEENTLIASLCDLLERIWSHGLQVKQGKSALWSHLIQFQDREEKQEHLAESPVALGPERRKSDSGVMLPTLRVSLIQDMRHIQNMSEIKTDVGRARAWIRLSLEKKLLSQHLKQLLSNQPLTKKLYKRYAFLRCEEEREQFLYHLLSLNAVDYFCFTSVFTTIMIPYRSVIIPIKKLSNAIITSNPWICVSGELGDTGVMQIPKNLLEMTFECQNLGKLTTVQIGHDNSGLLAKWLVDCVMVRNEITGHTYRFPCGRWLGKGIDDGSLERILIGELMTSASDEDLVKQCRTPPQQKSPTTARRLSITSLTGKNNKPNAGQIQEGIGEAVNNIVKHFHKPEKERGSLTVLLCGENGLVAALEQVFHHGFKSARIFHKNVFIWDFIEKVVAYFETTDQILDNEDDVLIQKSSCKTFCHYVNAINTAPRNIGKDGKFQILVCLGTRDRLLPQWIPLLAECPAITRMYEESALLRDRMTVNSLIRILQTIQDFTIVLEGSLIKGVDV
UniProt Q6ZTN6: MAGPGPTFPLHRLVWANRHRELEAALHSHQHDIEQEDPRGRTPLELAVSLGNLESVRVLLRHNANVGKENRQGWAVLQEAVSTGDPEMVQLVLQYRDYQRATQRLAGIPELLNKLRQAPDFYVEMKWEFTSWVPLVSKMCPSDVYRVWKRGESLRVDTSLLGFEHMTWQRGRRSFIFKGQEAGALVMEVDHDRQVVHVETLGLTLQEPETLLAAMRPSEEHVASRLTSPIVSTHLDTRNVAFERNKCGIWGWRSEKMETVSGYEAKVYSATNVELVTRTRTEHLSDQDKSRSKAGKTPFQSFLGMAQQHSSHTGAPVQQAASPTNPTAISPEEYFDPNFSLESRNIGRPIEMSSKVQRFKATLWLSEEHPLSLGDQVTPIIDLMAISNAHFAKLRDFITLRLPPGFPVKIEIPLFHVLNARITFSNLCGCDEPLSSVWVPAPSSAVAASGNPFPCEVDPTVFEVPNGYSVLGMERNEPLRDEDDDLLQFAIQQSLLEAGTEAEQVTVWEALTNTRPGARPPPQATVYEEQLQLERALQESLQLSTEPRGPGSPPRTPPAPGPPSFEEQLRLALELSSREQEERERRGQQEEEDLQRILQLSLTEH
UniProt Q86SX6: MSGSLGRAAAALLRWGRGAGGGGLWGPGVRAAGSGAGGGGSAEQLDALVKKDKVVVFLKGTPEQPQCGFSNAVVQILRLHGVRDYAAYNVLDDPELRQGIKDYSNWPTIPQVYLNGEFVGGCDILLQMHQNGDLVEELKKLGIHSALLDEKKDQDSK
UniProt Q76L83: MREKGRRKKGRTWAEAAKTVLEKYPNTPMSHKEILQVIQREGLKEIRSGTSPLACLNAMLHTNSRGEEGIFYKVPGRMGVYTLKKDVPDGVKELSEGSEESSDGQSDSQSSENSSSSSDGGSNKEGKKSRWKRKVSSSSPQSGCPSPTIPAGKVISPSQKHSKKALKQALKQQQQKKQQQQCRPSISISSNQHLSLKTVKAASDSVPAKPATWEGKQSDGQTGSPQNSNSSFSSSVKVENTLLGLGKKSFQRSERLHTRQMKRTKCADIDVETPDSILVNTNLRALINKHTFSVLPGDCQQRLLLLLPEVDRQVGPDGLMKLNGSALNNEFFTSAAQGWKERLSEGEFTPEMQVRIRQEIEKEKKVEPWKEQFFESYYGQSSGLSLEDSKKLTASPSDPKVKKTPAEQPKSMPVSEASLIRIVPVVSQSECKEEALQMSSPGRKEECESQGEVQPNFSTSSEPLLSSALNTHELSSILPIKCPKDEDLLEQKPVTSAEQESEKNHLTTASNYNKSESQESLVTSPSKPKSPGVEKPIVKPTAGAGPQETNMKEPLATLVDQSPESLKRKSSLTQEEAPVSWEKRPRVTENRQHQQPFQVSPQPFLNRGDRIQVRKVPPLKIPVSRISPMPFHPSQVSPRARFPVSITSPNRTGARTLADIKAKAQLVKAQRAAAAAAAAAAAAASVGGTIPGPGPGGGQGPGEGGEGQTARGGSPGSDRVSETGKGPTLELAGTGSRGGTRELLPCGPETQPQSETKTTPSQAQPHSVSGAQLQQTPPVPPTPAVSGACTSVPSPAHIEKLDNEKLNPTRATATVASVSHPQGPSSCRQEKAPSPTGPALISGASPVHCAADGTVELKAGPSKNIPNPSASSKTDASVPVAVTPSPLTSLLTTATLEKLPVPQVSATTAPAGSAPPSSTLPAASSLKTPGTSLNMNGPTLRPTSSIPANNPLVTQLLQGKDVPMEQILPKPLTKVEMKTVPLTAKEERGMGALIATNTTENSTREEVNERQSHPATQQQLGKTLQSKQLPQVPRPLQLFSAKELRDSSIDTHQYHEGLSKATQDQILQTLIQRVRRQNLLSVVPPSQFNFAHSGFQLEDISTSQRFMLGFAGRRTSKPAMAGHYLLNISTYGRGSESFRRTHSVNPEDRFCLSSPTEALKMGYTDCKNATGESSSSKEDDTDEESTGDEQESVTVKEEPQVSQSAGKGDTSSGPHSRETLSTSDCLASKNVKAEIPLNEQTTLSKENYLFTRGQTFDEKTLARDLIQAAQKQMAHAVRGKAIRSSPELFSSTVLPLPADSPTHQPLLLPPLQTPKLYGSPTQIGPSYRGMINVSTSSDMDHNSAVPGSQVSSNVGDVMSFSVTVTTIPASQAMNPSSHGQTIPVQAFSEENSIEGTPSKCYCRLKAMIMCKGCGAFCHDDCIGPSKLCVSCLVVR
UniProt Q7L5Y1: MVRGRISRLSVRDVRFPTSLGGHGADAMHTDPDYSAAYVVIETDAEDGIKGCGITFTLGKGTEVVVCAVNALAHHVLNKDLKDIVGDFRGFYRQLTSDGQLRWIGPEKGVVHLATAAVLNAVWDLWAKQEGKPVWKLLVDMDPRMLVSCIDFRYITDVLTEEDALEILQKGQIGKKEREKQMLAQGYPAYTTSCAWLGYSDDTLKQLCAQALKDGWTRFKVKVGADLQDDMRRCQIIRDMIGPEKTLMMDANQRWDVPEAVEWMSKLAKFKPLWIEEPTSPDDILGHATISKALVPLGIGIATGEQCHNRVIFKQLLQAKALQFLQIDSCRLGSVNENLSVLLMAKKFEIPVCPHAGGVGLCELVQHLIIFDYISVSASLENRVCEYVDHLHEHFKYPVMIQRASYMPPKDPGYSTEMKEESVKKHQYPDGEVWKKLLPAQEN

These results are taken from the supplement of paper PMC12595434, “Development of retinoid nuclear receptor pathway antagonists through targeting aldehyde dehydrogenase 1A3” (iScience, 2025).

This is one part of the list. This is a noisy data set.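 Tm was set to 64 °C where no melting was found, and many curves are irregular.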

As for RAPH1 (UniProt Q70E73), the melting temperature shift by setting is: (MBE1 concentration: 100 nM) -0.324 °C; (MBE1 concentration: 1 uM) 0.58 °C.

For the target KYAT3 (UniProt Q6YP21), the melting temperature shift was -1.17 °C (MBE1 concentration: 100 nM) and -2.63 °C (MBE1 concentration: 1 uM).

As to SLC30A9 (UniProt Q6PML9), the melting temperature shift (MBE1 concentration: 100 nM) is 0.666 °C and the melting temperature shift (MBE1 concentration: 1 uM) was determined as 0.446 °C.

On to USP48 (UniProt Q86UV5), for which the melting temperature shift (MBE1 concentration: 100 nM) was -0.442 °C and the melting temperature shift (MBE1 concentration: 1 uM) is -0.365 °C.

In the case of UniProt Q6UWU4, the melting temperature shift (MBE1 concentration: 1 uM) is -1.75 °C.

Turning to UniProt Q6ZT21, the melting temperature shift was -2.51 °C (MBE1 concentration: 100 nM) and 1.16 °C (MBE1 concentration: 1 uM).

As to MTERF4 (UniProt Q7Z6M4), under “MBE1 concentration: 100 nM”, the melting temperature shift was -0.884 °C.

Turning to ERMP1 (UniProt Q7Z2K6), where the note is “MBE1 concentration: 1 uM”, the melting temperature shift was -2.78 °C.

With SETD3 (UniProt Q86TU7), the melting temperature shift by setting is: (MBE1 concentration: 100 nM) -0.563 °C; (MBE1 concentration: 1 uM) 0.0939 °C.

On to UniProt Q7L099, for which the melting temperature shift is, setting by setting: (MBE1 concentration: 100 nM) -0.696 °C; (MBE1 concentration: 1 uM) -1.66 °C.

As for UniProt Q71UI9, the melting temperature shift runs as follows: (MBE1 concentration: 100 nM) 0.0961 °C; (MBE1 concentration: 1 uM) -0.625 °C.

For UniProt Q70CQ3, the melting temperature shift (MBE1 concentration: 100 nM) worked out at 1.16 °C.

On to UniProt Q7L211, for which the melting temperature shift (MBE1 concentration: 100 nM) was -1.31 °C.

In the case of FRRS1 (UniProt Q6ZNA5), the melting temperature shift (MBE1 concentration: 100 nM) is -0.791 °C.

KDM3B (UniProt Q7LBC6): the melting temperature shift (MBE1 concentration: 100 nM) was -0.71 °C and the melting temperature shift (MBE1 concentration: 1 uM) is -0.442 °C.

Turning to RSRC2 (UniProt Q7L4I2), the melting temperature shift is -3.67 °C (MBE1 concentration: 100 nM) and -0.458 °C (MBE1 concentration: 1 uM).

As for UniProt Q7Z7B1, for the setting “MBE1 concentration: 100 nM”, the melting temperature shift is -0.563 °C.

For the target SETX (UniProt Q7Z333), the melting temperature shift by setting is: (MBE1 concentration: 100 nM) -0.235 °C; (MBE1 concentration: 1 uM) 2.02 °C.

Take AEBP2 (UniProt Q6ZN18): the melting temperature shift is, setting by setting: (MBE1 concentration: 100 nM) -1 °C; (MBE1 concentration: 1 uM) 0.0256 °C.

For RICTOR (UniProt Q6R327), the melting temperature shift was -0.193 °C (MBE1 concentration: 100 nM) and -0.87 °C (MBE1 concentration: 1 uM).

As to TRAPPC11 (UniProt Q7Z392), the melting temperature shift (MBE1 concentration: 100 nM) turned out to be 1.68 °C and the melting temperature shift (MBE1 concentration: 1 uM) came out at 0.775 °C.

On to FASTKD5 (UniProt Q7L8L6), for which the melting temperature shift by setting is: (MBE1 concentration: 100 nM) -0.333 °C; (MBE1 concentration: 1 uM) -0.0577 °C.

For the target DHRS11 (UniProt Q6UWP2), the melting temperature shift amounted to 0.402 °C (MBE1 concentration: 100 nM) and 0.423 °C (MBE1 concentration: 1 uM).

Take TOM1L2 (UniProt Q6ZVM7): the melting temperature shift reads like this: (MBE1 concentration: 100 nM) -0.476 °C; (MBE1 concentration: 1 uM) 0.0305 °C.

In the case of TMEM205 (UniProt Q6UW68), the melting temperature shift (MBE1 concentration: 1 uM) is -2.33 °C.

As for QSOX2 (UniProt Q6ZRP7), the melting temperature shift (MBE1 concentration: 100 nM) was -1.18 °C and the melting temperature shift (MBE1 concentration: 1 uM) is 0.597 °C.

UniProt Q6UB28: the melting temperature shift reads like this: (MBE1 concentration: 100 nM) 0.282 °C; (MBE1 concentration: 1 uM) 1.4 °C.

As for UniProt Q7Z589, the melting temperature shift was -5.71 °C (MBE1 concentration: 100 nM) and -4.49 °C (MBE1 concentration: 1 uM).

Take DPH6 (UniProt Q7L8W6): the melting temperature shift reads like this: (MBE1 concentration: 100 nM) 0.36 °C; (MBE1 concentration: 1 uM) 0.0855 °C.

LCLAT1 (UniProt Q6UWP7): the melting temperature shift is, setting by setting: (MBE1 concentration: 100 nM) -1.05 °C; (MBE1 concentration: 1 uM) -0.884 °C.

On to WDR82 (UniProt Q6UXN9), for which the melting temperature shift (MBE1 concentration: 100 nM) was -0.926 °C and the melting temperature shift (MBE1 concentration: 1 uM) was found to be 0.574 °C.

As to UniProt Q86V59, the melting temperature shift runs as follows: (MBE1 concentration: 100 nM) -1.2 °C; (MBE1 concentration: 1 uM) -1.15 °C.

ACAD11 (UniProt Q709F0): the melting temperature shift is, setting by setting: (MBE1 concentration: 100 nM) -2.04 °C; (MBE1 concentration: 1 uM) 0.25 °C.

In the case of UniProt Q76FK4, the melting temperature shift reads like this: (MBE1 concentration: 100 nM) -0.641 °C; (MBE1 concentration: 1 uM) -0.826 °C.

Consider DENND5B (UniProt Q6ZUT9), for which the melting temperature shift (MBE1 concentration: 1 uM) is -6.66 °C.

Consider UniProt Q6ZTN6, for which the melting temperature shift is -1.57 °C (MBE1 concentration: 100 nM) and -1.57 °C (MBE1 concentration: 1 uM).

Take YRDC (UniProt Q86U90): the melting temperature shift was -0.456 °C (MBE1 concentration: 100 nM) and -0.295 °C (MBE1 concentration: 1 uM).

In the case of UniProt Q86U42, the melting temperature shift was 0.8 °C (MBE1 concentration: 100 nM) and 0.159 °C (MBE1 concentration: 1 uM).

With FAM65A (UniProt Q6ZS17), the melting temperature shift runs as follows: (MBE1 concentration: 100 nM) 0.409 °C; (MBE1 concentration: 1 uM) 0.212 °C.

As to GLRX5 (UniProt Q86SX6), the melting temperature shift is -1.48 °C (MBE1 concentration: 100 nM) and 0.295 °C (MBE1 concentration: 1 uM).

With PTAR1 (UniProt Q7Z6K3), the melting temperature shift is, setting by setting: (MBE1 concentration: 100 nM) -0.174 °C; (MBE1 concentration: 1 uM) 0.955 °C.

COPS6 (UniProt Q7L5N1): the melting temperature shift is -0.0537 °C (MBE1 concentration: 100 nM) and 0.57 °C (MBE1 concentration: 1 uM).

PACS1 (UniProt Q6VY07): the melting temperature shift (MBE1 concentration: 100 nM) came out at 0.434 °C and the melting temperature shift (MBE1 concentration: 1 uM) worked out at 1.09 °C.

In the case of NCEH1 (UniProt Q6PIU2), the melting temperature shift reads like this: (MBE1 concentration: 100 nM) -0.856 °C; (MBE1 concentration: 1 uM) -0.98 °C.

On to AAGAB (UniProt Q6PD74), for which the melting temperature shift is -1.42 °C (MBE1 concentration: 100 nM) and -0.302 °C (MBE1 concentration: 1 uM).

HACD2 (UniProt Q6Y1H2): the melting temperature shift was 0.127 °C (MBE1 concentration: 100 nM) and -0.355 °C (MBE1 concentration: 1 uM).

With BLOC1S3 (UniProt Q6QNY0), the melting temperature shift runs as follows: (MBE1 concentration: 100 nM) -0.986 °C; (MBE1 concentration: 1 uM) -0.283 °C.

On to GET4 (UniProt Q7L5D6), for which the melting temperature shift by setting is: (MBE1 concentration: 100 nM) 0.647 °C; (MBE1 concentration: 1 uM) -0.58 °C.

With UniProt Q86TS9, the melting temperature shift is 3.32 °C (MBE1 concentration: 100 nM) and 1.25 °C (MBE1 concentration: 1 uM).

HUWE1 (UniProt Q7Z6Z7): the melting temperature shift was found to be 0.379 °C (MBE1 concentration: 100 nM) and 0.513 °C (MBE1 concentration: 1 uM).

Consider TRMT10C (UniProt Q7L0Y3), for which the melting temperature shift is 0.641 °C (MBE1 concentration: 100 nM) and 0.403 °C (MBE1 concentration: 1 uM).

On to UniProt Q6PCB7, for which the melting temperature shift by setting is: (MBE1 concentration: 100 nM) -0.0941 °C; (MBE1 concentration: 1 uM) -0.0565 °C.

As to PPP1R21 (UniProt Q6ZMI0), the melting temperature shift by setting is: (MBE1 concentration: 100 nM) -0.418 °C; (MBE1 concentration: 1 uM) -0.442 °C.

As for UniProt Q6PJI9, the melting temperature shift is, setting by setting: (MBE1 concentration: 100 nM) 0.745 °C; (MBE1 concentration: 1 uM) 1.11 °C.

In the case of UniProt Q86UB9, the melting temperature shift runs as follows: (MBE1 concentration: 100 nM) -1.46 °C; (MBE1 concentration: 1 uM) -0.838 °C.

Consider THADA (UniProt Q6YHU6), for which the melting temperature shift runs as follows: (MBE1 concentration: 100 nM) 1.26 °C; (MBE1 concentration: 1 uM) 0.879 °C.

Regarding DNMBP (UniProt Q6XZF7), the melting temperature shift is -0.626 °C (MBE1 concentration: 100 nM) and -0.353 °C (MBE1 concentration: 1 uM).

Regarding CLASP1 (UniProt Q7Z460), the melting temperature shift was -0.935 °C (MBE1 concentration: 100 nM) and -0.756 °C (MBE1 concentration: 1 uM).

On to UniProt Q75N03, for which the melting temperature shift is 0.583 °C (MBE1 concentration: 100 nM) and -0.532 °C (MBE1 concentration: 1 uM).

Take TTC21B (UniProt Q7Z4L5): the melting temperature shift by setting is: (MBE1 concentration: 100 nM) -1.22 °C; (MBE1 concentration: 1 uM) -7.99 °C.

Take YTHDF3 (UniProt Q7Z739): the melting temperature shift was -0.121 °C (MBE1 concentration: 100 nM) and 0.372 °C (MBE1 concentration: 1 uM).

With MTHFD1L (UniProt Q6UB35), the melting temperature shift is 0.635 °C (MBE1 concentration: 100 nM) and 0.562 °C (MBE1 concentration: 1 uM).

In the case of NLRX1 (UniProt Q86UT6), the melting temperature shift is -1.21 °C (MBE1 concentration: 100 nM) and 1.25 °C (MBE1 concentration: 1 uM).

Consider CWC27 (UniProt Q6UX04), for which the melting temperature shift is 0.274 °C (MBE1 concentration: 100 nM) and -0.456 °C (MBE1 concentration: 1 uM).

On to LARP4 (UniProt Q71RC2), for which the melting temperature shift by setting is: (MBE1 concentration: 100 nM) -0.795 °C; (MBE1 concentration: 1 uM) -0.476 °C.

For the target UniProt Q76L83, the melting temperature shift reads like this: (MBE1 concentration: 100 nM) -1.19 °C; (MBE1 concentration: 1 uM) -1.08 °C.

With TLK2 (UniProt Q86UE8), the melting temperature shift (MBE1 concentration: 100 nM) came to 1.6 °C and the melting temperature shift (MBE1 concentration: 1 uM) amounted to 0.965 °C.

Regarding MRPL21 (UniProt Q7Z2W9), the melting temperature shift came to 0.446 °C (MBE1 concentration: 100 nM) and 1.42 °C (MBE1 concentration: 1 uM).

With ENOSF1 (UniProt Q7L5Y1), the melting temperature shift was -2.27 °C (MBE1 concentration: 100 nM) and 1.82 °C (MBE1 concentration: 1 uM).

Take UBR3 (UniProt Q6ZT12): the melting temperature shift is, setting by setting: (MBE1 concentration: 100 nM) 0.104 °C; (MBE1 concentration: 1 uM) -0.87 °C.

On to HSDL2 (UniProt Q6YN16), for which the melting temperature shift is, setting by setting: (MBE1 concentration: 100 nM) 0.629 °C; (MBE1 concentration: 1 uM) 0.537 °C.

As for UniProt Q6ZV73, the melting temperature shift amounted to 1.22 °C (MBE1 concentration: 100 nM) and 1.82 °C (MBE1 concentration: 1 uM).
